Results are given in words; binding and its absence hold for the method and conditions named. Binding seen in cells or lysates may run through a third protein. These calls come from enrichment with a bait or labelling near it, and not all partners need be listed. A no says only that the protein was not detected with the bait.
Target: CD4 (UniProt P01730)
Assay: affinity purification with mass spectrometry

Question: Which binding does the source give for PIVQNIQGQMVHQAISPRTLNA here?
Answer: no binding

Question: Which binding does the source give for VVEEKAFSPEVIP here?
Answer: no binding

Question: Which binding does the source give for PLTSLRSLFGNDPSSQ here?
Answer: no binding

Question: VVEEKAFSPEVI was tested. Which binding did it give?
Answer: no binding

Question: AEAMSQVTNSATIM was tested. Which binding did it give?
Answer: no binding

Question: For FLGKIWPSYKGRPGNF, which binding is on record?
Answer: no binding

From paper PMC5946011
